Test results published in publication PMC7187271.
These are yes or no findings as the source states them, for the method shown. Binding seen in cells or lysates may run through a third protein. Some binding calls cover weakened binding; strength is not graded here.

T1: biotin-labeled 7Aa peptide (7-aa peptide with a serine substituted with an alanine, MHAPGAD) (mouse)
T1 sequence (peptide, biotin on the N-terminus): MHAPGAD

T2: biotin-labeled scrabbled 7-aa peptide 7S (MPHASGD)
T2 sequence (peptide, biotin on the N-terminus): MPHASGD

T3: biotin-labeled 7-aa peptide 7A (MHSPGAD) (mouse)
T3 sequence (peptide, biotin on the N-terminus): MHSPGAD

T4: biotin-labeled 7Ap peptide (MH[pSer]PGAD, synthetically phosphorylated serine residue) (mouse)
T4 sequence (peptide, phosphoserine (MH[pSer]PGAD); biotin on the N-terminus): MHSPGAD

B1: phosphorylated MEKK1 (phospho-MEKK1 Ser393) (enzyme, UniProt P53349 1-1493)
chain: MAAAAGDRASSSGFPGAAAASPEAGGGGGGGGALQGSGAPAAGAAGLLREPGSAGRERADWRRRQLRKVRSVELDQLPEQPLFLAAASPPCPSTSPSPEPADAAAGASRFQPAAGPPPPGAASRCGSHSAELAAARDSGARSPAGAEPPSAAAPSGREMENKETLKGLHKMEDRPEERMIREKLKATCMPAWKHEWLERRNRRGPVVVKPIPIKGDGSEVNNLAAEPQGEGQAGSAAPAPKGRRSPSPGSSPSGRSVKPESPGVRRKRVSPVPFQSGRITPPRRAPSPDGFSPYSPEETSRRVNKVMRARLYLLQQIGPNSFLIGGDSPDNKYRVFIGPQNCSCGRGAFCIHLLFVMLRVFQLEPSDPMLWRKTLKNFEVESLFQKYHSRRSSRIKAPSRNTIQKFVSRMSNSHTLSSSSTSTSSSENSIKDEEEQMCPICLLGMLDEESLTVCEDGCRNKLHHHCMSIWAEECRRNREPLICPLCRSKWRSHDFYSHELSSPVESPASLRAVQQPSSPQQPVAGSQRRNQESSFNLTHFGTQQIPSAYKDLAEPWIQVFGMELVGCLFSRNWNVREMALRRLSHDVSGALLLANGESTGNSGGGSGGSLSAGAASGSSQPSISGDVVEACCSVLSIVCADPVYKVYVAALKTLRAMLVYTPCHSLAERIKLQRLLRPVVDTILVKCADANSRTSQLSISTVLELCKGQAGELAVGREILKAGSIGVGGVDYVLSCILGNQAESNNWQELLGRLCLIDRLLLEFPAEFYPHIVSTDVSQAEPVEIRYKKLLSLLTFALQSIDNSHSMVGKLSRRIYLSSARMVTAVPAVFSKLVTMLNASGSTHFTRMRRRLMAIADEVEIAEVIQLGVEDTVDGHQDSLQAVAPTSCLENSSLEHTVHREKTGKGLSATRLSASSEDISDRLAGVSVGLPSSTTTEQPKPAVQTKGRPHSQCLNSSPLSHAQLMFPAPSAPCSSAPSVPDISKHRPQAFVPCKIPSASPQTQRKFSLQFQRNCSEHRDSDQLSPVFTQSRPPPSSNIHRPKPSRPVPGSTSKLGDATKSSMTLDLGSASRCDDSFGGGGNSGNAVIPSDETVFTPVEDKCRLDVNTELNSSIEDLLEASMPSSDTTVTFKSEVAVLSPEKAENDDTYKDDVNHNQKCKEKMEAEEEEALAIAMAMSASQDALPIVPQLQVENGEDIIIIQQDTPETLPGHTKAKQPYREDAEWLKGQQIGLGAFSSCYQAQDVGTGTLMAVKQVTYVRNTSSEQEEVVEALREEIRMMGHLNHPNIIRMLGATCEKSNYNLFIEWMAGGSVAHLLSKYGAFKESVVINYTEQLLRGLSYLHENQIIHRDVKGANLLIDSTGQRLRIADFGAAARLASKGTGAGEFQGQLLGTIAFMAPEVLRGQQYGRSCDVWSVGCAIIEMACAKPPWNAEKHSNHLALIFKIASATTAPSIPSHLSPGLRDVAVRCLELQPQDRPPSRELLKHPVFRTTW
modifications: phosphoserine at 393
B2: MEKK1 (mitogen-activated protein kinase MEKK1) (enzyme, UniProt P53349 1-1493)
chain: B1 chain
B3: 14-3-3 gamma protein (protein, UniProt P61982 1-247)
chain: MVDREQLVQKARLAEQAERYDDMAAAMKNVTELNEPLSNEERNLLSVAYKNVVGARRSSWRVISSIEQKTSADGNEKKIEMVRAYREKIEKELEAVCQDVLSLLDNYLIKNCSETQYESKVFYLKMKGDYYRYLAEVATGEKRATVVESSEKAYSEAHEISKEHMQPTHPIRLGLALNYSVFYYEIQNAPEQACHLAKTAFDDAIAELDTLNEDSYKDSTLIMQLLRDNLTLWTSDQQDDDGGEGNN

Key:
Experiment in all cases: pull-down; 5 μg biotin-labeled peptide with 50 μg lysate of VEGF-treated/untreated Sca1+-VPCs at 37°C for 1 hour, streptavidin-agarose beads, washed six times with lysis buffer containing 0.5% Triton X-100, eluate analysed by Western blot; only the target purified
[1] = molecular target: T1, biotin-labeled 7Aa peptide (7-aa peptide with a serine substituted with an alanine, MHAPGAD) (mouse)
[2] = molecular target: T2, biotin-labeled scrabbled 7-aa peptide 7S (MPHASGD)
[3] = molecular target: T3, biotin-labeled 7-aa peptide 7A (MHSPGAD) (mouse)
[4] = molecular target: T4, biotin-labeled 7Ap peptide (MH[pSer]PGAD, synthetically phosphorylated serine residue) (mouse)

binding [1] | binding [2] | binding [3] | binding [4] | Binder
binds | – | – | – | B1
binds | binds | – | – | B2
– | – | binds | binds | B3
